Assay results: PMC10634346 (Cancer Research Communications, 2023)

System: SU-DHL-4 and SU-DHL-10 cell lines
Experiment: RNA-seq differential gene expression in DLBCL cell lines
Format: cell-based, human
Description: Evaluation of the pharmacodynamic extent and duration of CDK9 inhibition were performed in vitro using the human DLBCL cell lines SU-DHL-4 and SU-DHL-10, harboring MYC amplification and MYC overexpression with P57T mutation, respectively. Cells were seeded 18 hours prior to treatment for 4 hours with one of three CDK9 inhibitors, enitociclib (0.25 and1 µmol/L), atuveciclib (1 µmol/L) or KB-0742 (1 µmol/L), cells were washed, and incubation continued until 48 hours posttreatment. Samples were collected before treatment (−4), immediately after treatment (0), and at 1, 2, 4, 8, 12, 16, 24, and 48 hours after washout for RNA sequencing (RNA-seq), qPCR, and Western blotting analyses. […] The integrity of purified total RNA was evaluated using an Agilent 2100 Bioanalyzer system and RNA 6000 Nano Kit (Agilent, #5067-1511). […] MYC and MCL1 mRNA levels were measured by qPCR in vitro and in vivo, using a Taqman qPCR system (Thermo Fisher Scientific), TaqMan Fast Universal PCR Master Mix (2X) no AmpErase (#4352042) and TaqMan probes for MYC (Hs00153408_m1) and MCL1 (Hs03043899_m1). RNA-seq data were analyzed using DESeq2 ([35]). RNA-seq data generated from the analysis of two cell lines treated with the three CDK9 inhibitors was analyzed to investigate the differences in gene expression levels between various posttreatment timepoints and the pretreatment samples. […]

SMILES: COc1cc(F)ccc1-c1cc(Nc2cc(CS(C)(=N)=O)ccn2)ncc1F (centres unmarked) [enitociclib]
- share of DEGs downregulated (4 hours 250 nmol/L treatment (1,177/1,491)): 78.94%
- number of significantly DEGs (4 hours 250 nmol/L treatment, Padj ≤ 0.05, fold change ≥2): 1,491
